{"source": "PubChem BioAssay AID720703 (Peter MacCallum Cancer Centre, 2013)", "aim": "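Find kinases that boost or dampen angiotensin II-triggered EGFR transactivation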 (primary screen)", "system": "immortalised, SV40-transformed mammary epithelial cells from human, with stable expression of tagged AT1R", "reagent": "siRNA pool against human genes, 40 nM siRNA pool per well", "duration": "72 h from transfection to lysis and read-out", "challenge": "angiotensin II stimulation (dose and duration not given); EGFR inhibitor AG1478 also listed", "read-out": "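AlphaScreen bead assay of phosphorylated ERK1/2 in cell lysates, corrected for well confluency, converted to robust z-scores and averaged across two technical replicate plates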", "direction": "phospho-ERK z-score: higher = more ERK phosphorylation after angiotensin II, relative to plate", "active means": "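Pools were ordered by robust z-score and 50 top-ranked pools, whether they raised or lowered the signal, were chosen for secondary testing; no numeric threshold was reported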", "meaning of the calls": "active = picked for secondary screen; inactive = not picked", "note": "Here is a random part of 714 reagents tested. 50 of all reagents (7%) count as active. 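Chosen pools sit at both extremes, so both low and high scores count as candidates; some pools appear more than once.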"}
{"gene symbol": "PRKAB1 (protein kinase AMP-activated non-catalytic subunit beta 1)", "phospho-ERK z-score, replicate mean": -0.02, "Call": "inactive"}
{"gene symbol": "MAP3K19 (mitogen-activated protein kinase kinase kinase 19)", "phospho-ERK z-score, replicate mean": -0.03, "Call": "inactive"}
{"gene symbol": "WNK4 (WNK lysine deficient protein kinase 4)", "phospho-ERK z-score, replicate mean": -0.34, "Call": "inactive"}
{"gene symbol": "IGF2R (insulin like growth factor 2 receptor)", "phospho-ERK z-score, replicate mean": 1.56, "Call": "inactive"}
{"gene symbol": "ERN1 (endoplasmic reticulum to nucleus signaling 1)", "phospho-ERK z-score, replicate mean": -0.86, "Call": "inactive"}
{"gene symbol": "PANK4 (pantothenate kinase 4 (inactive))", "phospho-ERK z-score, replicate mean": -0.4, "Call": "inactive"}
{"gene symbol": "CAMK1 (calcium/calmodulin dependent protein kinase I)", "phospho-ERK z-score, replicate mean": -0.82, "Call": "inactive"}
{"gene symbol": "MPP1 (MAGUK p55 scaffold protein 1)", "phospho-ERK z-score, replicate mean": -0.28, "Call": "inactive"}
{"gene symbol": "CSK (C-terminal Src kinase)", "phospho-ERK z-score, replicate mean": 0.46, "Call": "inactive"}
{"gene symbol": "HUNK (hormonally up-regulated Neu-associated kinase)", "phospho-ERK z-score, replicate mean": 1.28, "Call": "inactive"}
{"gene symbol": "FXN (frataxin)", "phospho-ERK z-score, replicate mean": -0.8, "Call": "inactive"}
{"gene symbol": "VRK1 (VRK serine/threonine kinase 1)", "phospho-ERK z-score, replicate mean": -0.64, "Call": "inactive"}
{"gene symbol": "EPHA3 (EPH receptor A3)", "phospho-ERK z-score, replicate mean": 1.75, "Call": "inactive"}
{"gene symbol": "ULK1 (unc-51 like autophagy activating kinase 1)", "phospho-ERK z-score, replicate mean": 1.64, "Call": "inactive"}
{"gene symbol": "AKT3 (AKT serine/threonine kinase 3)", "phospho-ERK z-score, replicate mean": -1.31, "Call": "active"}
{"gene symbol": "CKMT1B (creatine kinase, mitochondrial 1B)", "phospho-ERK z-score, replicate mean": -0.36, "Call": "inactive"}
{"gene symbol": "PRKDC (protein kinase, DNA-activated, catalytic subunit)", "phospho-ERK z-score, replicate mean": 0.44, "Call": "inactive"}
{"gene symbol": "NME6 (NME/NM23 nucleoside diphosphate kinase 6)", "phospho-ERK z-score, replicate mean": -0.75, "Call": "inactive"}
{"gene symbol": "MAP2K2 (mitogen-activated protein kinase kinase 2)", "phospho-ERK z-score, replicate mean": 0.13, "Call": "inactive"}

2 neighbouring reagents already listed:
{"gene symbol": "EPHA3 (EPH receptor A3)", "phospho-ERK z-score, replicate mean": 1.75, "Call": "inactive"}
{"gene symbol": "ULK1 (unc-51 like autophagy activating kinase 1)", "phospho-ERK z-score, replicate mean": 1.64, "Call": "inactive"}
